Results deposited as PubChem BioAssay AID743454 (Peter MacCallum Cancer Centre, 2014)

Test: 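Genes whose loss kills vorinostat-resistant colon cancer cells under vorinostat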 (primary screen)
Cell system: human HCT116-VR colon cancer cells, selected for vorinostat resistance
Knock-down reagent: siRNA pool against human genes, 40 nM siRNA pool
Timing: vorinostat for 24 h, read-out about 72 h after transfection
Treatment: vorinostat at 2.5 µM final
Measured: 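Two measures, CellTiter-Fluor viability and luminescent caspase 3/7 activity, each as fold change against same-plate mock wells, mean of duplicates, then screen-wide robust z-score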
Reading the numbers: viability robust z-score: higher = more viable cells than screen typical; caspase robust z-score: higher = more caspase 3/7 activity than screen typical
Rule for the call: 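Hits are knock-downs in viability class RV1/RV2 or caspase class CA1/CA2, excluding ones that killed cells in the no-drug cell-count arm; hits then retested with single siRNAs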
The deposit covers about 18,000 reagents; this is a random part of them. Of all reagents, 450 (2.5%) are marked active. 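Single biological run; no consistent viability z cut-off exists, so the class columns, not z-scores, define the calls.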

For CD2BP2, what was measured?
viability hit class: no change; caspase hit class: no change; viability robust z-score: -0.81; caspase robust z-score: 0.24; Outcome: inactive

What did the screen give for SPATA45?
viability hit class: no change; caspase hit class: no change; viability robust z-score: -0.34; caspase robust z-score: -0.74; Outcome: inactive

What did the screen give for NACC1?
viability hit class: no change; caspase hit class: no change; viability robust z-score: -1.4; caspase robust z-score: 0.92; Outcome: inactive

With GPATCH2L, what was measured?
viability hit class: no change; caspase hit class: no change; viability robust z-score: -1.77; caspase robust z-score: -1.15; Outcome: inactive

With OR2T33, what was measured?
viability hit class: no change; caspase hit class: no change; viability robust z-score: -0.52; caspase robust z-score: -0.96; Outcome: inactive

What is on record for SLC25A16?
viability hit class: no change; caspase hit class: no change; viability robust z-score: 0.08; caspase robust z-score: 0.74; Outcome: inactive

With GAPDH, what was measured?
viability hit class: no change; caspase hit class: no change; viability robust z-score: -0.44; caspase robust z-score: -0.74; Outcome: inactive

How did the screen score CHGB?
viability hit class: no change; caspase hit class: no change; viability robust z-score: 0.78; caspase robust z-score: 0.04; Outcome: inactive

What is on record for CTDSPL?
viability hit class: no change; caspase hit class: no change; viability robust z-score: 1.68; caspase robust z-score: 0.08; Outcome: inactive

In a second layout: 3 of the entries above
gene	viability hit class	caspase hit class	viability robust z-score	caspase robust z-score	Outcome
NACC1	no change	no change	-1.4	0.92	inactive
GPATCH2L	no change	no change	-1.77	-1.15	inactive
OR2T33	no change	no change	-0.52	-0.96	inactive

The list goes on.
With VPREB1, what does the deposit list?
viability hit class: no change; caspase hit class: no change; viability robust z-score: 0.84; caspase robust z-score: -0.57; Outcome: inactive

Which result is listed for OR52E6?
viability hit class: no change; caspase hit class: no change; viability robust z-score: -0.78; caspase robust z-score: -0.98; Outcome: inactive

For DND1, how do the results read?
viability hit class: no change; caspase hit class: no change; viability robust z-score: 0.54; caspase robust z-score: 0.16; Outcome: inactive

How did the screen score MYL12B?
viability hit class: no change; caspase hit class: no change; viability robust z-score: -0.48; caspase robust z-score: 0.06; Outcome: inactive

What did the screen give for IQCN?
viability hit class: no change; caspase hit class: no change; viability robust z-score: 0.64; caspase robust z-score: -1.07; Outcome: inactive

What is on record for WDR88?
viability hit class: no change; caspase hit class: no change; viability robust z-score: -0.22; caspase robust z-score: 1.56; Outcome: inactive

Which result is listed for DDX43?
viability hit class: no change; caspase hit class: no change; viability robust z-score: -1.24; caspase robust z-score: 0.69; Outcome: inactive

With MAN2C1, what does the deposit list?
viability hit class: no change; caspase hit class: no change; viability robust z-score: 0.96; caspase robust z-score: -0.78; Outcome: inactive

Which result is listed for INPPL1?
viability hit class: no change; caspase hit class: no change; viability robust z-score: -0.47; caspase robust z-score: 0.16; Outcome: inactive

With RNASE12, how do the results read?
viability hit class: no change; caspase hit class: no change; viability robust z-score: 0; caspase robust z-score: 0.12; Outcome: inactive

For GRK1, how do the results read?
viability hit class: no change; caspase hit class: no change; viability robust z-score: 0.21; caspase robust z-score: -0.38; Outcome: inactive

With SH3BGRL2, what does the deposit list?
viability hit class: no change; caspase hit class: no change; viability robust z-score: 0.04; caspase robust z-score: -0.76; Outcome: inactive

For NCKAP5L, what was measured?
viability hit class: no change; caspase hit class: no change; viability robust z-score: -0.82; caspase robust z-score: 2.62; Outcome: inactive

For TEDC1, how do the results read?
viability hit class: no change; caspase hit class: no change; viability robust z-score: 0.34; caspase robust z-score: 0.18; Outcome: inactive

Which result is listed for APOL2?
viability hit class: no change; caspase hit class: no change; viability robust z-score: -0.22; caspase robust z-score: -0.17; Outcome: inactive

What did the screen give for KIAA0930?
viability hit class: no change; caspase hit class: no change; viability robust z-score: 1.56; caspase robust z-score: -0.92; Outcome: inactive

For OR51E2, how do the results read?
viability hit class: no change; caspase hit class: no change; viability robust z-score: 0.31; caspase robust z-score: 0.08; Outcome: inactive

Which result is listed for LUC7L2?
viability hit class: no change; caspase hit class: no change; viability robust z-score: -0.2; caspase robust z-score: -0.64; Outcome: inactive
